PubChem BioAssay AID1671195 – Yale University – 2021
The whole screen tested about 22,000 reagents; this is an unselected part. About 1,510 of them (6.9%) count as active. 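Active includes knockdowns raising or lowering LDL uptake; positive z-scores mean more uptake, negative mean less.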 A number with no mark means an inactive call.

Assay: 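Genes whose knockdown alters LDL uptake in liver cancer cells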 (primary screen)
Cell system: human Huh7 hepatoma cells
Reagent: siRNA pool against human genes, 18 nM
Duration: about 2 to 2.5 days of knockdown, then 8 h LDL uptake
Treatment: DiI-labelled LDL at 30 µg/ml for 8 h, in lipoprotein-deficient serum medium
Measured: 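Fluorescent LDL signal imaged in cells, scaled to the plate median, robust z-score for each replicate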
Reading the numbers: robust z-score: higher = more LDL uptake after knockdown
Hit rule: 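a gene counts as active if at least two replicate z-scores exceed ±2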

target | robust z-score, replicate 1 | robust z-score, replicate 2 | robust z-score, replicate 3
LOC387756 (retired record) | -0.334 | -0.525 | -0.521
OR51A7 | -0.176 | -0.416 | 0.00453
LINC02899 | -0.689 | 0.0721 | -0.192
ZNF654 | -0.894 | -0.224 | -0.0102
TEX13B | 1.97 | 1.79 | 0.776
MGME1 | 0.199 | -0.929 | -0.798
TSPAN10 | -1.42 | -1.17 | -0.939
ATP8B4 | -0.2 | -0.636 | -0.687
HAGHL | -1.06 | -1.33 | -1.15
POU5F1 | 4.85 (active) | 4.21 | 4.06
OR10G7 | -0.836 | -0.862 | -0.518
CNPPD1 | -0.734 | -0.0618 | -0.132
ZNF664 | -1.35 | -1.63 | -0.8
C16orf82 | 2.55 | 0.896 | 1.1
TSPAN2 | -0.818 | -1.61 | -1.47
FDX1 | -0.358 | 0.322 | 0.136
ZBTB20 | 1.11 | 0.541 | 0.625
UCN2 | -0.913 | -0.329 | -0.47
CFAP184 | -0.182 | -0.0936 | -0.25
MRPS16 | 0.0176 | -0.432 | -2.73
CHRNA2 | -1.13 | -1.21 | -1.04
CASP9 | -0.0578 | 1.05 | 0.587
LOC402142 (retired record) | -0.367 | -0.939 | -0.539
CNNM3 | 2.54 | -0.461 | -0.39
METTL3 | 0.042 | -0.176 | -0.0504
BRD3 | 0.555 | -0.681 | -0.364
MRPL17 | -0.578 | -0.695 | -1.37
CSNK1G2 | -0.176 | -0.896 | -0.684
SHISAL1 | 0.668 | 1.19 | 2.18
COLGALT2 | 0.406 | 0.0804 | 1.41
ZC3H8 | -1.94 | -1.71 | -1.02
AARS2 | 0.376 | -0.429 | -0.0423
RASGRP3 | -0.534 | -1.07 | -1
TMEM141 | -0.247 | -0.519 | -0.176
HES6 | -0.197 | 0.465 | 0.94
CLCN3 | -0.518 | -0.83 | -0.336
TNFRSF25 | 1.98 (active) | 0.841 | 2.26
CLDN6 | 1.69 | 0.965 | 1.61
SPATA25 | -1.59 | -1.33 | -1.52
DRAP1 | -0.333 | -0.554 | -0.695
LINC00701 | 1.01 | -0.41 | -0.864
PSMA7 | -0.966 | -1.3 | -1.31
GABRA1 | 0.0529 | 0.539 | 0.178
SPINK5 | -0.875 | -0.802 | -0.7
RERGL | 1.25 | 1.7 | 1.16
CPLX2 | 2.16 (active) | 2.33 | 2.34
